# PubChem BioAssay AID493014 (National Center for Advancing Translational Sciences (NCATS), 2011)
# About 170 (0.05%) of roughly 340,000 compounds were called active. This list was built around the results that the source calls inconclusive (neither active nor inactive); the mix of calls is not that of the screen. Calls come from the whole dose curve; as a rule, active = well fitted inhibition curve with a large enough effect in the signal ratio, with a control signal flat (not every such curve was filed as active); inconclusive = small, poorly fitted or top-dose-only effect, or effect the other way, or a change in a side signal; inactive = flat fitted curve, though single readings scatter; the % refers to the signal ratio. Potencies of inconclusive entries are doubtful fits and often do not repeat.
# Experiment: qHTS Assay to Find Inhibitors of Chronic Active B-Cell Receptor Signaling;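 for activity change, negative = inhibition: plate controls were basal doxycycline-induced cells for no effect and cells given 10 µM MG132 for full effect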
# Conditions: ABC-DLBCL IkBa-CBG/CBR reporter, luminescence ratio (green luciferase fused to IkBa over red control in TMD8 lymphoma cells), 4 h; activity change, negative = inhibition: at 46.1 µM (top of the series)
# Procedure, shortened: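 TMD8 ABC-DLBCL cells carrying doxycycline-inducible green luciferase fused to IkappaBalpha plus unfused red luciferase were exposed to compounds (up to 46 uM) for 4 hrs at 37C. Activity came from the overlap-corrected green/red luminescence ratio.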
# Potency is the fitted concentration of half-maximal effect.
Structure (SMILES),Potency,"activity change, negative = inhibition"
CC(=O)Nc1cccc(NC(=O)c2ccc3c(c2)CCN3S(C)(=O)=O)c1,"inconclusive: 15.8 µM [falling, single point]",
O=C(CSc1nnc(-c2ccc(F)cc2)c2ccccc12)Nc1ccccc1Cl,"inconclusive: 20.6 µM [falling, single point]",
CCOc1ncccc1C(=O)Nc1cccc(-c2nnc3n2CCCCC3)c1,,inconclusive: 8.95%
CCc1nc2ccccc2c(C(=O)OCC(=O)Nc2ccc(NC(C)=O)cc2)c1C,,inconclusive: -18.1%
COc1ccc(NC(=O)C(=O)Nc2cccc3ccccc23)c(OC)c1,"inconclusive: 1.78 µM [falling, full curve]",
O=C(NNC(=S)Nc1ccccc1)c1ccc(O)cc1,"inconclusive: 5.62 µM [falling, single point]",
CN1CCc2c(sc(NC(=O)c3ccc([N+](=O)[O-])o3)c2C(N)=O)C1,"inconclusive: 35.5 µM [falling, single point]",
Cc1ccc(S(=O)(=O)NNC(=O)c2sc3nc(C)cc(C)c3c2-n2cccc2)cc1,,inconclusive: 2.93%
C=CCn1c(=O)c2c(C)c(C)sc2n2c(Nc3ccc(OC)cc3)nnc12,,inconclusive: 1.38%
Brc1ccc(-c2nnc(-c3ccco3)o2)cc1,,inconclusive: 8.55%
Cc1ccc(N(C(=O)c2csnn2)C(C(=O)NC2CCCCC2)c2ccco2)cc1 (stereo not drawn),"inconclusive: 7.94 µM [falling, partial curve, poor fit]",
Cc1cc(NC(=O)C(C)Sc2nc(-c3ccccc3)cc(=O)[nH]2)no1 (stereo not drawn),"inconclusive: 11.2 µM [falling, partial curve]",
CCOC(=O)C1CCCN(C(=O)COc2ccc(C(=O)c3ccc(F)cc3)cc2)C1 (stereo not drawn),,inactive
CN(CC(=O)Nc1ccc(Cl)c(C(F)(F)F)c1)C(=O)C1(c2ccccc2)CC1,,inconclusive: 8.83%
CCn1c(C)nc2cc(C(=O)N/N=C/c3ccccc3)ccc21,,inactive
COc1ccc(OC)c(S(=O)(=O)NCc2cn3c(C)csc3n2)c1,,inactive
COc1cccc(-n2sc3c(c2=S)-c2cc(OC)ccc2NC3(C)C)c1,,inactive
Cc1cc(C)cc(Oc2nc3ccccn3c(=O)c2/C=C(\C#N)C(=O)NC2CCS(=O)(=O)C2)c1 (stereo not drawn),,inconclusive: -0.128%
CN1CCCc2cc3c(C(F)(F)F)cc(=O)oc3nc21,,inactive
Cc1cc(C)cc(NC(=O)c2cccc(NC(=O)C3C4CC5OC(=O)C3C5C4)c2)c1 (stereo not drawn),,inconclusive: 0.878%
Cc1cc(C2(c3ccc(O)c(C)c3)C(=O)Nc3ccccc32)ccc1O,,inactive
O=C1c2ccccc2NC(c2ccco2)N1O (stereo not drawn),,inconclusive: 19.3%
COC(=O)Nc1nc2ccc(C(=O)c3ccc(F)cc3)cc2[nH]1,"inconclusive: 0.562 µM [falling, full curve, poor fit]",
Cc1ccn2cc(-c3cccc(NS(C)(=O)=O)c3)nc2c1,,inactive
Cc1ccc2nc(-c3ccc(N4C(=O)CC(N5CCN(CCO)CC5)C4=O)cc3)sc2c1 (stereo not drawn),,inconclusive: 4.7%
c1ccc(CSCc2cn3ccsc3n2)cc1,,inactive

Structure (SMILES),Potency,"activity change, negative = inhibition"
Cc1[nH]n(-c2ccc(Cl)cc2)c(=O)c1N=Nc1cccnc1,,inconclusive: 12.4%
COc1ccc(-c2nc(CN3CCN(C(=O)c4ccco4)CC3)c(C)o2)c(OC)c1C,,inactive
O=C(NN1C(=O)c2ccccc2C1=O)C1C2CCCCC21 (stereo not drawn),,inconclusive: 13.4%
Cc1ccc(C(=O)NNC(=S)Nc2cccc3ccccc23)s1,"inconclusive: 25.1 µM [falling, partial curve]",
O=C(NCCN1C(=O)S/C(=C\c2ccc(F)cc2)C1=O)c1cccc(S(=O)(=O)N2CCOCC2)c1,"inconclusive: 20.6 µM [falling, single point]",
O=C(NCC1(N2CCCCC2)CCCCC1)C1CC(=O)N(c2ccc3c(c2)OCCO3)C1 (stereo not drawn),,inactive
CC1CN(c2ccc([N+](=O)[O-])cc2Cl)CCN1S(C)(=O)=O (stereo not drawn),,inconclusive: 3.99%
COc1ccc(N(CC(=O)NCc2ccc(F)cc2)C(=O)Cn2nnc(-c3ccc(C)o3)n2)cc1OC,,inconclusive: 5.4%
Cc1nn(-c2ncc(C(F)(F)F)cc2Cl)c(=O)n1-c1ccccc1Cl,,inconclusive: 10.6%
COc1ccc(C(CCN(Cc2ccc(OC)c(OC)c2)C(C)=O)c2ccccc2)cc1 (stereo not drawn),"inconclusive: 16.4 µM [falling, partial curve, poor fit]",
O=C(Nc1nnc(C2CC2)s1)c1ccco1,,inconclusive: -9.78%
CCc1ccc(C(=O)COC(=O)C(Cc2c[nH]c3ccccc23)NC(=O)c2ccc(CC)cc2)cc1 (stereo not drawn),,inconclusive: 57.6%
CCN(C(=O)CSc1nc2cc(C(F)(F)F)ccc2n1Cc1ccccc1)C1CCS(=O)(=O)C1 (stereo not drawn),,inconclusive: -2.53%
Cc1ccccc1CC1(CO)CCCN(C(=O)c2cc(Cl)ccc2F)C1 (stereo not drawn),"inconclusive: 1.12 µM [falling, full curve, poor fit]",
Cc1cc(N2CCOCC2)n2nc(-c3cccc(F)c3)cc2n1,,inactive
CCCC1=C(C(=O)OCC)C(/C=C/c2ccccc2)n2ncnc2N1 (stereo not drawn),"inconclusive: 3.66 µM [falling, full curve]",
COCCNC(=O)/C(C#N)=C/c1cn(CC(=O)NCc2ccco2)c2ccccc12,,inconclusive: 3.16%
c1ccc2c(Cn3ccnc3)c[nH]c2c1,,inconclusive: 12.5%
O=C(c1ccccc1)N1CCc2ccccc21,,inconclusive: 3.98%
COC(=O)[C@]1(Cc2ccccc2)N[C@H](CN(C)S(=O)(=O)c2ccc(C(C)(C)C)cc2)[C@@H]2C(=O)N(Cc3ccccc3)C(=O)[C@@H]21,,inactive
N#C/C(=C\c1ccc(-c2ccccc2)cc1)c1nc(-c2ccco2)cs1,,inconclusive: 5.39%
Cc1ccc(NC(=S)NCCc2c[nH]c3ccccc23)c(C)c1,,inactive
CC1(C)Cc2c(sc3nc(-c4ccccc4)n(N)c(=O)c23)CO1,"inconclusive: 11.2 µM [falling, partial curve]",
CC12CCC(C(=O)N(CSC(=S)N/N=C\c3ccccc3)C1=O)C2(C)C (stereo not drawn),,inactive
O=C(/C=C/c1cccs1)N1CCc2ccccc21,"inconclusive: 20.6 µM [falling, partial curve]",
CCCc1cc(C(=O)Nc2sc3c(c2C#N)CCC3)no1,,inconclusive: 4.88%

Structure (SMILES),Potency,"activity change, negative = inhibition"
CCCNC(=O)NC(=O)COC(=O)c1cccc(NS(=O)(=O)c2ccc(F)c(F)c2)c1,,inconclusive: -12.8%
CCOCCCNC(=O)/C(C#N)=C/c1cc(Br)c(O)c(Br)c1,"inconclusive: 7.08 µM [falling, partial curve]",
COc1cc(C2OC(=O)c3c2ccc(OC)c3OC)ccc1O (stereo not drawn),,inconclusive: 25.1%
COc1ccc(CCC(=O)Nc2nc3ccccc3[nH]2)cc1,,inactive
O=[N+]([O-])c1cccc(-c2csc(Nc3ccccc3)n2)c1,,inconclusive: -16.7%
COc1ccc(CC(=O)N/N=C/c2ccc(Cl)s2)cc1OC,,inconclusive: 0.94%
CC1CCCN(CCCNC(=O)c2ccc3c(c2)N(Cc2cccc(Cl)c2)C(=O)c2ccccc2S3(=O)=O)C1 (stereo not drawn),,inconclusive: -21.6%
C=CCSc1nc(C)c2cc(C)cc(C)c2n1,"inconclusive: 29.1 µM [falling, single point]",
O=[N+]([O-])c1nn(-c2ccc3c(c2)OCCO3)n(O)c1=NCCC1=CCCCC1,,inconclusive: -2.15%
COc1ccc(/C=C/c2ccc3c(Br)ccc(O)c3n2)cc1,,inconclusive: 14.5%
CCC(C)NC(=O)[C@H]1N2C(=O)c3c(ccc(OC)c3OC)C2SC1(C)C (stereo partly drawn),,inconclusive: -0.465%
CCN(C[C@H]1N[C@@](CC)(C(=O)OC)[C@H]2C(=O)N(C)C(=O)[C@@H]12)C(=O)Nc1ccccc1,,inactive
O=C(CCS(=O)(=O)c1ccc(Cl)cc1)Nc1nc(-c2ccncc2)cs1,,inconclusive: 5.51%
Cc1ccc(N2CC(C(=O)Nc3ccc(S(=O)(=O)N4CCOCC4)cc3)CC2=O)cc1Cl (stereo not drawn),"inconclusive: 2.31 µM [rising, full curve]",
CC(C)NC(=O)CC(c1ccccc1)c1cc(Br)ccc1O (stereo not drawn),,inconclusive: -8.24%
O=C(O)CCn1nc(-c2ccc(F)cc2)cc(Cc2ccccc2)c1=O,,inconclusive: 3.66%
CN1CCC(N(C)C(=O)c2ccc(Cl)c(S(=O)(=O)N3CCc4ccccc43)c2)CC1,,inconclusive: -1.95%
CC(C)(C)C1CCC(=NNc2ccc(S(N)(=O)=O)cc2[N+](=O)[O-])CC1 (stereo not drawn),,inactive
O=C(O)CCC(=O)Nc1ccc(-n2ccc(C(F)(F)F)n2)cc1,"inconclusive: 15.8 µM [falling, single point]",
Cc1ccc(C)n1-c1ccc(C(=O)O)cc1,,inactive
Cc1ccc(C)c(CSc2nc3ccncc3n2CC(=O)Nc2ccc(C)c(C)c2)c1,,inconclusive: -10.8%
COc1cc(/C=C/c2nc(N)nc(-c3ccccc3O)n2)cc(OC)c1OC,,inconclusive: 6.54%
Cc1ccc2oc(C(=O)N(Cc3ccc(N(C)C)cc3)CC3CCCO3)c(C)c2c1 (stereo not drawn),,inactive
COC(=O)C1=C(C)N(Cc2ccccc2)C(=NCCc2c[nH]c3ccccc23)N[C@H]1c1cccc(F)c1,,inconclusive: -5.42%
CCN(CCCNC(=O)CC(C(=O)N1CCc2ccccc21)n1ccnc1)c1cccc(C)c1 (stereo not drawn),"inconclusive: 35.5 µM [falling, partial curve, poor fit]",
CCCCNC(=O)C1CCC(CNc2c(N3CCC(C)CC3)c(=O)c2=O)CC1 (stereo not drawn),,inconclusive: -5.92%

# Quoted from the listing, three compounds:
Structure (SMILES),Potency,"activity change, negative = inhibition"
CCc1nc2ccccc2c(C(=O)OCC(=O)Nc2ccc(NC(C)=O)cc2)c1C,,inconclusive: -18.1%
COc1ccc(NC(=O)C(=O)Nc2cccc3ccccc23)c(OC)c1,"inconclusive: 1.78 µM [falling, full curve]",
O=C(NNC(=S)Nc1ccccc1)c1ccc(O)cc1,"inconclusive: 5.62 µM [falling, single point]",
